Here are results for four molecules from paper PMC9559323.

No constants are given. Whether binding was seen depends on the method and setting. In cells and extracts the contact can be indirect. These calls come from enrichment with a bait or labelling near it, and not all partners need be listed.

The target of this test is translocated EspHwt (SBP-tagged EspH) (enteropathogenic Escherichia coli (EPEC)). In words: affinity purification with mass spectrometry; HeLa cells infected 90 min at 37°C with EPEC strains; SBP-tagged translocated EspH precipitated from lysates (50 mM Tris pH 7.4, 150 mM NaCl, 0.5% NP-40) with StAv agarose beads, 4 hrs at 4°C; on-bead digestion, LC-MS/MS, label-free quantification.

B1: Rab3A (protein, UniProt P20336 1-220)
chain: MASATDSRYGQKESSDQNFDYMFKILIIGNSSVGKTSFLFRYADDSFTPAFVSTVGIDFKVKTIYRNDKRIKLQIWDTAGQERYRTITTAYYRGAMGFILMYDITNEESFNAVQDWSTQIKTYSWDNAQVLLVGNKCDMEDERVVSSERGRQLADHLGFEFFEASAKDNINVKQTFERLVDVICEKMSESLDTADPAVTGAKQGPQLSDQQVPPHQDCAC
For B1, the binding result is recorded as “binds”.

B2: endogenous active Bcr related (ABR) protein (protein, UniProt Q12979 1-859)
chain: MEPLSHRGLPRLSWIDTLYSNFSYGTDEYDGEGNEEQKGPPEGSETMPYIDESPTMSPQLSARSQGGGDGVSPTPPEGLAPGVEAGKGLEMRKLVLSGFLASEEIYINQLEALLLPMKPLKATATTSQPVLTIQQIETIFYKIQDIYEIHKEFYDNLCPKVQQWDSQVTMGHLFQKLASQLGVYKAFVDNYKVALETAEKCSQSNNQFQKISEELKVKGPKDSKDSHTSVTMEALLYKPIDRVTRSTLVLHDLLKHTPVDHPDYPLLQDALRISQNFLSSINEDIDPRRTAVTTPKGETRQLVKDGFLVEVSESSRKLRHVFLFTDVLLCAKLKKTSAGKHQQYDCKWYIPLADLVFPSPEESEASPQVHPFPDHELEDMKMKISALKSEIQKEKANKGQSRAIERLKKKMFENEFLLLLNSPTIPFRIHNRNGKSYLFLLSSDYERSEWREAIQKLQKKDLQAFVLSSVELQVLTGSCFKLRTVHNIPVTSNKDDDESPGLYGFLHVIVHSAKGFKQSANLYCTLEVDSFGYFVSKAKTRVFRDTAEPKWDEEFEIELEGSQSLRILCYEKCYDKTKVNKDNNEIVDKIMGKGQIQLDPQTVETKNWHTDVIEMNGIKVEFSMKFTSRDMSLKRTPSKKQTGVFGVKISVVTKRERSKVPYIVRQCVEEVEKRGIEEVGIYRISGVATDIQALKAVFDANNKDILLMLSDMDINAIAGTLKLYFRELPEPLLTDRLYPAFMEGIALSDPAAKENCMMHLLRSLPDPNLITFLFLLEHLKRVAEKEPINKMSLHNLATVFGPTLLRPSEVESKAHLTSAADIWSHDVMAQVQVLLYYLQHPPISFAELKRNTLYFSTDV
Regarding B2, the binding entry is given as “binds”.

B3: Rab12 (protein, UniProt Q6IQ22 1-340)
chain: MLLPLLRSSCFPSSSPGGGGGSGGGGGGGDPGAESRPAAQLQRGAHGPPGPLQRAEAEPGADPPRAAEAEGAPGPGARSRGAGGGGRRAEREPHACMDPGAALQRRAGGGGGLGAGSPALSGGQGRRRKQPPRPADFKLQVIIIGSRGVGKTSLMERFTDDTFCEACKSTVGVDFKIKTVELRGKKIRLQIWDTAGQERFNSITSAYYRSAKGIILVYDITKKETFDDLPKWMKMIDKYASEDAELLLVGNKLDCETDREITRQQGEKFAQQITGMRFCEASAKDNFNVDEIFLKLVDDILKKMPLDILRNELSNSILSLQPEPEIPPELPPPRPHVRCC
With B3, the binding entry is listed as “binds”.

B4: Tim10 (protein, UniProt P62072 1-90)
chain: MDPLRAQQLAAELEVEMMADMYNRMTSACHRKCVPPHYKEAELSKGESVCLDRCVSKYLDIHERMGKKLTELSMQDEELMKRVQQSSGPA
On to B4, for which the binding result was “binds”.
